About 910 (0.23%) of roughly 390,000 compounds were called active. The inconclusive results got no clear call from the source; some entries with a clear call stand among them for comparison. Calls follow the shape of the dose curve; as a rule, active = well fitted inhibition curve with a large enough effect; inconclusive = small, poorly fitted or top-dose-only effect; inactive = no such curve, though single readings can be large or run the other way. Potencies of inconclusive entries are doubtful fits and often do not repeat.
Molecular target: Ubiquitin carboxyl-terminal hydrolase 1 (Homo sapiens) (UniProt O94782)
Assay: Inhibitors of USP1/UAF1: Primary Screen; also: nearly all actives have a fitted effect of over 60% in size
Details: recombinant USP1/UAF1, Ub-Rhodamine cleavage fluorescence; series mostly up to 57.1 µM
Outline: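 High-throughput fluorogenic screen: 1nM USP1/UAF1 complex, Ub-Rho substrate 150nM final, 50mM HEPES pH 7.8 with 0.5mM EDTA, 0.1 mg/ml BSA, 1mM TCEP and 0.01% Tween-20.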
Potency is read from the fitted curve at half-maximal effect.

Sequences of proteins named here, by UniProt entry; tags and fusion partners are left off. A change or cut given only in a name is not applied to a line headed by its entry.
UniProt O94782: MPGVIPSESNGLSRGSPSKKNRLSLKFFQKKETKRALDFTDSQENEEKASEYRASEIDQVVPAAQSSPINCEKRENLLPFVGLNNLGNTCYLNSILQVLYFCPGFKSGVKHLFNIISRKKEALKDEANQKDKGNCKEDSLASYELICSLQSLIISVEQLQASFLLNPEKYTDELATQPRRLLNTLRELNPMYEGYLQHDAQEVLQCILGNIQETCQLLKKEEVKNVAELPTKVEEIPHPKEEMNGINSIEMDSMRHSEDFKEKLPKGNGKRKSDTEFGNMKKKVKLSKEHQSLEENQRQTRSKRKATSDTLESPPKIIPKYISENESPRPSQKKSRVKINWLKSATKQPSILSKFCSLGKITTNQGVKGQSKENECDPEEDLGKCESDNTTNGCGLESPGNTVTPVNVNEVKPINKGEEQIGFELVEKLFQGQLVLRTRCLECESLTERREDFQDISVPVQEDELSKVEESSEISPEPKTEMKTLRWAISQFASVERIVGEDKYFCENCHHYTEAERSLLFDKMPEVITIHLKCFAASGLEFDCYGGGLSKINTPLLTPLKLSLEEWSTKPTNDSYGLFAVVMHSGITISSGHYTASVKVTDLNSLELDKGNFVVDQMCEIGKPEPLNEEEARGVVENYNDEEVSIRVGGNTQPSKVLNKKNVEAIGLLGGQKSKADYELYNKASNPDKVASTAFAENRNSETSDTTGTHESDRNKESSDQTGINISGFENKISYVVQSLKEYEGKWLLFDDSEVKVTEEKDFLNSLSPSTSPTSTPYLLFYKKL

Potency, inconclusive:
CC(C)C(=O)NNC(=O)c1csc(-c2cccs2)n1 50.1 µM [inhibitor, partial curve, poor fit]
O=c1c2c(-c3ccccc3)csc2ncn1/N=C/c1c2ccccc2cc2ccccc12 15.8 µM [inhibitor, partial curve]
CCN1CCN(Cc2ccc(NC(=O)c3ccc(C)c(NC(=O)c4csc(-c5ccncc5)n4)c3)cc2C(F)(F)F)CC1 10 µM [inhibitor, full curve]
Brc1ccc([C@H]2CN3CCSC3=N2)cc1 0.199 µM [inhibitor, full curve, poor fit]
C=CCN1C(=O)CS/C1=N\N=C\c1cccc([N+](=O)[O-])c1 1.41 µM [inhibitor, partial curve]
COc1cccc(-c2nnc3n(Cc4ccc(C)cc4)c(=O)c4ccccc4n23)c1O 7.94 µM [inhibitor, partial curve]
CC(c1cccnc1)N(CCN(C)C)C(=O)Nc1ccc(Cl)cc1 (stereo not drawn) 7.08 µM [inhibitor, partial curve, poor fit]
COc1ccc(C2=NN(S(C)(=O)=O)C(c3cccs3)C2)cc1OC (stereo not drawn) 0.112 µM [inhibitor, full curve, poor fit]
C[C@H](CO)N1C[C@H](C)[C@@H](CN(C)C(=O)Nc2ccc(C(F)(F)F)cc2)Oc2c(NC(=O)C3CCCCC3)cccc2C1=O 11.2 µM [inhibitor, partial curve, poor fit]
COc1cc2ccc(=O)oc2c(O[C@@H]2O[C@H](CO)[C@@H](O)[C@H](O)[C@H]2O)c1O 50.1 µM [inhibitor, partial curve]
COc1ccc2nc3ccccc3nc2c1N 89.1 µM [inhibitor, partial curve, poor fit]
Cc1ccc(C(=O)Nc2ccc3oc(-c4cc(Br)ccc4Cl)nc3c2)cc1 0.708 µM [inhibitor, full curve, poor fit]
COc1ccccc1C(=O)C1CCCN(C(=O)c2cccnc2SC)C1 (stereo not drawn) 17.8 µM [inhibitor, single point]
O=C(CSc1nc2ccsc2c(=O)n1Cc1ccccc1F)NCc1ccccc1Cl 0.891 µM [inhibitor, full curve, poor fit]
Cc1noc(NS(=O)(=O)c2ccc(NC(=O)Nc3ccc(Cl)c(Cl)c3)cc2)c1C 44.7 µM [inhibitor, partial curve, poor fit]
Clc1cccc(-n2ncc3c(Nc4ccc5c(c4)OCCO5)ncnc32)c1 50.1 µM [inhibitor, partial curve, poor fit]
CC1CCCCN1C(=O)CSc1nc2c(c(=O)n(C)c(=O)n2C)n1C (stereo not drawn) 8.91 µM [inhibitor, partial curve, poor fit]
COCCNC(=O)/C(C#N)=C1\N=C(NC(=O)c2cccs2)c2ccccc21 79.4 µM [inhibitor, partial curve, poor fit]
COc1ccc(N(C(=O)c2cccc(C)c2)S(=O)(=O)c2ccc3c(c2)n(C)c(=O)n3C)cc1 35.5 µM [inhibitor, partial curve]
CCOC(=O)Cn1c(-c2cccs2)cc2cc(Cl)ccc21 0.708 µM [inhibitor, full curve, poor fit]
CCN(CC)Cc1c(O)c(Cl)cc2c3c(c(=O)oc12)CCCC3 28.2 µM [inhibitor, partial curve]
CCc1ccc(N(CC)C(=O)c2sc3nc4n(c(=O)c3c2C)CCCC4)cc1 20 µM [inhibitor, partial curve]
COc1cc([C@@H]2CC=C(C(=O)O)[C@H](c3cccc(Cl)c3)N2S(=O)(=O)c2ccc(C)cc2)cc(OC)c1OC 44.7 µM [inhibitor, partial curve, poor fit]
CCOC(=O)Cc1csc(NC(=O)c2sc3nc4c(C)cc(C)cc4cc3c2N)n1 35.5 µM [inhibitor, partial curve, poor fit]
CCOc1cc(S(=O)(=O)N2CCN(c3ccc(F)cc3)CC2)c(OCC)cc1-n1cnnn1 35.5 µM [inhibitor, single point]
O=C(Cn1ncc2c3ccccc3n(Cc3cccc(Cl)c3)c2c1=O)NCCC1=CCCCC1 12.6 µM [inhibitor, partial curve, poor fit]
CC1(OC(=O)C2CCCC2)C(=O)C=C2C=C(c3ccsc3)N(c3ccccc3)C=C2C1=O (stereo not drawn) 44.7 µM [inhibitor, partial curve, poor fit]
Cc1nc(-c2ccc([N+](=O)[O-])cc2)sc1C(=O)O 3.98 µM [inhibitor, single point]
O=C(O)CN1C(=O)/C(=C\c2cc(Br)ccc2OCc2ccc(F)cc2)SC1=S 31.6 µM [inhibitor, partial curve, poor fit]
CC(C)(C)CC(C)(C)N=C1Nc2cc(Cl)c(Cl)cc2NC12C[C@H]1CCC(=O)N3CC[C@@H](C2)[C@@H]13 (stereo partly drawn) 50.1 µM [inhibitor, partial curve, poor fit]
Cc1c(NC(=S)Nc2ccccc2C(F)(F)F)cccc1[N+](=O)[O-] 15.8 µM [inhibitor, partial curve]
COCCNC(=O)C(c1ccc(C)cc1)N(C(=O)CCC(=O)Nc1ccccn1)C1CCCCC1 (stereo not drawn) 6.31 µM [inhibitor, single point]
COc1ccc(NC(=O)c2oc3ccccc3c2NC(=O)C23CC4CC(CC(C4)C2)C3)cc1 15.8 µM [inhibitor, partial curve]
O=C(Nc1ccc(F)cc1)c1ccc2c(c1)NC(=O)c1ccccc1S2 8.91 µM [inhibitor, partial curve, poor fit]
O=C(C1=C[C@@H](c2ccccc2)C[C@@H](OCc2ccc(CO)cc2)O1)N1CCN(Cc2ccc3c(c2)OCO3)CC1 7.08 µM [inhibitor, partial curve, poor fit]
O=C1NN(c2ccccc2)C(=O)/C1=C/c1coc2ccccc2c1=O 50.1 µM [inhibitor, partial curve, poor fit]
Cc1nc2c(-c3ccccc3)c(C)nn2c(C)c1CCC(=O)NCc1ccccc1 20 µM [inhibitor, partial curve, poor fit]
O=C(NC1CC1)C1=C[C@H](c2c[nH]c3ccccc23)C[C@H](OCCCCO)O1 35.5 µM [inhibitor, partial curve, poor fit]
CC(=O)C[C@@H](O)CC(=O)[C@@H]1OC(=O)CCCCCCc2ccccc21 6.31 µM [inhibitor, single point]
COc1cc(OC)c(C=CC(=O)c2ccccc2O)c(OC)c1 11.2 µM [inhibitor, partial curve]
O=C(Nc1ccccc1)C(=O)Nc1ccccn1 0.708 µM [inhibitor, full curve]
COCc1c(N)c(C)nc(Cl)c1C#N 3.16 µM [inhibitor, full curve]
CC#CCN1c2ccccc2[C@]23C[C@@H](C(=O)OC)N(C(=O)NC(C)(C)C)C2=NC(C(=O)OC)=C(C(=O)OC)[C@H]13 39.8 µM [inhibitor, partial curve, poor fit]

Copied from the results shown (2 entries):
Potency, inconclusive:
CC(c1cccnc1)N(CCN(C)C)C(=O)Nc1ccc(Cl)cc1 (stereo not drawn) 7.08 µM [inhibitor, partial curve, poor fit]
COc1ccc(C2=NN(S(C)(=O)=O)C(c3cccs3)C2)cc1OC (stereo not drawn) 0.112 µM [inhibitor, full curve, poor fit]

Filtered by structure, those above containing a tert-butyl group (2)
Potency, inconclusive:
CC(C)(C)CC(C)(C)N=C1Nc2cc(Cl)c(Cl)cc2NC12C[C@H]1CCC(=O)N3CC[C@@H](C2)[C@@H]13 (stereo partly drawn) 50.1 µM [inhibitor, partial curve, poor fit]
CC#CCN1c2ccccc2[C@]23C[C@@H](C(=O)OC)N(C(=O)NC(C)(C)C)C2=NC(C(=O)OC)=C(C(=O)OC)[C@H]13 39.8 µM [inhibitor, partial curve, poor fit]

Following part:

Potency, inactive:
Cc1ccccc1CNC(=O)COc1ccccc1
CN(C)CCNC(=O)C(=O)NCC(c1cccnc1)N1CCN(c2ccccc2)CC1 (stereo not drawn)
Cc1cc(NC(=O)CSc2nc3ccccc3c(=O)n2Cc2ccccc2)no1
NC(=O)c1ccsc1NC(=O)COC(=O)Cc1ccsc1
c1cnc2c(c1)ccc1cccnc12
CCc1cc2c3c(c(=O)oc2cc1OC(C)C(=O)O)CCCC3 (stereo not drawn)
CC=Cc1cc(OC)c2c(c1)C(C)C(c1ccc(O)c(OC)c1)O2 (stereo not drawn)
Brc1nnc2n1-c1ccccc1Sc1ccccc1-2
COc1ccc(CNC(=O)CSc2ncc3c(n2)-c2cc(Cl)ccc2N(C)S3(=O)=O)cc1
COC(=O)c1c(C(=O)OC)c(-c2ccc(C(C)(C)C)cc2)n2c1CS(=O)C2 (stereo not drawn)
CC(=O)c1cccc(N=c2scc(-c3ccc(S(=O)(=O)N4CCOCC4)cc3)n2CCO)c1
O=C(Cn1c(SCC(=O)Nc2ccc(F)cc2)nc2ccccc21)NCc1ccc(Cl)cc1
Cc1ccc(SCCNS(=O)(=O)c2ccc3c(c2)OCCO3)cc1
O=C(NCc1ccccc1Cl)c1ccc(NC(=O)N2CCSc3ccccc32)cc1
COC(=O)c1ccc(Oc2nc3c(c(=O)n(C)c(=O)n3C)n2Cc2ccc(Cl)c(Cl)c2)cc1
CCc1ccc(NS(=O)(=O)c2c(-c3ccccc3)csc2C(=O)OC)cc1
CC(C)c1ccc(NS(=O)(=O)c2ccc3[nH]cc(C(=O)N4CCC(C(N)=O)CC4)c(=O)c3c2)cc1
CCc1ccc2oc(-c3ccc(C)c(NC(=O)c4ccc(C#N)cc4F)c3)nc2c1
CN1CCCN(S(=O)(=O)c2cccc(C(F)(F)F)c2)c2nc3ccccc3nc21
CCOC(=O)C(=NC(C)CC)NNc1cccc(C(F)(F)F)c1 (stereo not drawn)
